{
  "source": "patent EP4417623A1",
  "about": "(Fundació Institut de Recerca Contra la Leucèmia Josep …, dated 2024)",
  "binders": {"B1": {"name": "anti-CCR9 antibody clone 115 (antibody, V domains shown)", "VH": "QVQLKQSGPELVKPGTSVRVSCTASGYSFTDYIIYWVKQSHGRSLEWIGYIDPNNYNTRYSQKFKGKATLTVDKSSTSAFMHLNSLTSDDSAVYYCARDVYWGQGTTLTVSS", "VL": "DVVMTQTPLSLTVSLGDQASISCRSSQSLVHSNGKTYLQWYLQKPGQSPKLLIYKVSNRFSGVPDRFSGSGSGTDFTLKISRVEAEDLGVYFCAQSTHVWTFGGGTKLEIKR", "notes": "Murine monoclonal antibody, isotype IgG1; It was tested as hybridoma supernatant in the FACS screening and as Protein A/G purified antibody in the ELISA"}},
  "key": {"[1]": {"molecular_target": "T1, human CCR9 (C-C chemokine receptor type 9) (human) (UniProt P51686)", "T1 sequence (looked up)": "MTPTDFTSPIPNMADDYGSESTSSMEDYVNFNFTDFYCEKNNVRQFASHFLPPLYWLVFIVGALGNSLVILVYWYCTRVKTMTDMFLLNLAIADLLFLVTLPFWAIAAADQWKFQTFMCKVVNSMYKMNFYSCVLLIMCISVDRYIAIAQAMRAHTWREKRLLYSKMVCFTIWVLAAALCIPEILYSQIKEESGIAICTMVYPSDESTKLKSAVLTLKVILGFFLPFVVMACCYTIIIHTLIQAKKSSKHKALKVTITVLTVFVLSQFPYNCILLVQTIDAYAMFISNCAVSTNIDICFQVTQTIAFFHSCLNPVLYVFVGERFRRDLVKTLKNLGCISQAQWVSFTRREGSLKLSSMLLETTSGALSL", "experiment": "flow cytometry of hybridoma supernatant on CCR9+ MOLT-4 and CCR9 KO MOLT-4 cells"}, "[2]": {"molecular_target": "T1, human CCR9 (C-C chemokine receptor type 9) (human)", "experiment": "flow cytometry on WT and CCR9 KO MOLT4 cells"}},
  "note": "These are yes or no findings as the source states them, for the method shown. Some results given as binding are weak or reduced against the parent protein; the word gives no strength.",
  "data": [
    {"binder": "B1", "values": [
      {"measurement": "binding", "setting": "[1]", "value": "binds"},
      {"measurement": "binding", "setting": "[2]", "value": "binds"}
    ]}
  ]
}
